# Paper PMC11362043
# Protein sequences, listed by entry. Tags and fused reporters are not part of them. Residues count along the entry.
# UniProt Q37165: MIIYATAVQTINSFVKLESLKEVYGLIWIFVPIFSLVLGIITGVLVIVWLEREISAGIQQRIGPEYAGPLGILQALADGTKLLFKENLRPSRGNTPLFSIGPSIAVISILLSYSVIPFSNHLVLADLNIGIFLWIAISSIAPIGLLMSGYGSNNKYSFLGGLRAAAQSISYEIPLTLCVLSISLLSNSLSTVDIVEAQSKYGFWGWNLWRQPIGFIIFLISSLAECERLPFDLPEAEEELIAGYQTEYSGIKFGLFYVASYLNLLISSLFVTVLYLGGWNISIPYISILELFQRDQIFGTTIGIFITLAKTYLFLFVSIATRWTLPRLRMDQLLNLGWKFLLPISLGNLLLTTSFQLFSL
# UniProt Q9S841, residues 85-331: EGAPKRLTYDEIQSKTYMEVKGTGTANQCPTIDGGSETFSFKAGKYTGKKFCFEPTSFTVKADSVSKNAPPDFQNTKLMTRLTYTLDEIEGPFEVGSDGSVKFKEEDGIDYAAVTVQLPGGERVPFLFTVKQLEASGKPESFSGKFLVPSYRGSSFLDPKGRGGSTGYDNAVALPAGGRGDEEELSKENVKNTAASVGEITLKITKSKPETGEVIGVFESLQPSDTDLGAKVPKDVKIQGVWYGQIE
# UniProt P56774: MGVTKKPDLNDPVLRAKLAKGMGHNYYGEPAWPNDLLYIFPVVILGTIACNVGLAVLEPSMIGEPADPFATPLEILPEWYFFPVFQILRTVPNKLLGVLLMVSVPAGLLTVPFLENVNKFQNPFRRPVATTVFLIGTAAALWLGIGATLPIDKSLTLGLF
# UniProt P59230: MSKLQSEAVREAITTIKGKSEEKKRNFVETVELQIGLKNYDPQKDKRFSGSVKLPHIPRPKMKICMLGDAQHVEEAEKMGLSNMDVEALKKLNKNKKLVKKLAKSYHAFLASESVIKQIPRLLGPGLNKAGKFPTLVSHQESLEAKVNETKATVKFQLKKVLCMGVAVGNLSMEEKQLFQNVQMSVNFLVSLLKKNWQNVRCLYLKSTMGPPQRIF
# UniProt P25873, residues 68-277: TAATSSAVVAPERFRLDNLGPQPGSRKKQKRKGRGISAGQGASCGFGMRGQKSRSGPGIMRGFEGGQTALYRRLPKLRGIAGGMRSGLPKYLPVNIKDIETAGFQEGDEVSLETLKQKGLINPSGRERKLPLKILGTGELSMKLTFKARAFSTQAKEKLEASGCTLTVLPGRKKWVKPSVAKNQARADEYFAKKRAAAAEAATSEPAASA
# These are yes or no findings as the source states them, for the method shown. Binding seen in cells or lysates may run through a third protein. Some binding calls cover weakened binding; strength is not graded here.
# T1: TL20.3 (Arabidopsis thaliana (endogenous in leaf chloroplast isolate)) (UniProt Q8H1Q1)
# T1 sequence: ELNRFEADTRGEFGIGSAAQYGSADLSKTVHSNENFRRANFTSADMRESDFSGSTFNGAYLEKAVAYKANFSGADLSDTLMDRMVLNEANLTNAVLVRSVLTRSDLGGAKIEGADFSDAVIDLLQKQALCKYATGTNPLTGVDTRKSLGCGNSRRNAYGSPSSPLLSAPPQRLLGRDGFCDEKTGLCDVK
# T2: FIB1A (Arabidopsis thaliana (endogenous in leaf chloroplast isolate)) (UniProt O81439)
# T2 sequence: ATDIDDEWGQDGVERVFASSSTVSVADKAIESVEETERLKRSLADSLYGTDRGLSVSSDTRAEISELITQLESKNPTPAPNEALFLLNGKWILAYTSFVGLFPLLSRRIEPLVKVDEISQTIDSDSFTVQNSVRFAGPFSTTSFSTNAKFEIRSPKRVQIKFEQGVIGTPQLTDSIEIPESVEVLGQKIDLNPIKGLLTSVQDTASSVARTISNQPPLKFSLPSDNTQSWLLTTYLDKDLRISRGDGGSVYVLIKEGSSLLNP
# T3: FtsH5 (Arabidopsis thaliana (endogenous in leaf chloroplast isolate)) (UniProt Q9FH02)
# T3 sequence: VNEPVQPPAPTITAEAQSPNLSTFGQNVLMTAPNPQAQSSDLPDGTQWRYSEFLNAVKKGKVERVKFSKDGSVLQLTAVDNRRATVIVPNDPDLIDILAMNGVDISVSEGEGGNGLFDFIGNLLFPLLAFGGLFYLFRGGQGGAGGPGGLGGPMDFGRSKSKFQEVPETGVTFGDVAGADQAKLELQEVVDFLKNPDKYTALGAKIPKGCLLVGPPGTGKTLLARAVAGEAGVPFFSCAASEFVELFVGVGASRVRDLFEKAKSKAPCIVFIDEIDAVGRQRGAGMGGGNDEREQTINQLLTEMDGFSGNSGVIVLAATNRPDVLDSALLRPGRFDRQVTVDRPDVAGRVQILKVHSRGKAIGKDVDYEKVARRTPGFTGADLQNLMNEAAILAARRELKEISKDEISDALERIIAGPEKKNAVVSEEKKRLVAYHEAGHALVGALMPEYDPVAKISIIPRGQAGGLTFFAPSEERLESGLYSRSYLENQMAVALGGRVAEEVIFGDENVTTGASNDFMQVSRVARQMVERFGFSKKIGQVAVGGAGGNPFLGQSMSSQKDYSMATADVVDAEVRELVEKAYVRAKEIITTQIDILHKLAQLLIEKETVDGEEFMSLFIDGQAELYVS
# B1: PSB27-H1 (protein, UniProt Q9LR64 69-174)
# chain: AEDEEYIKDTSAVISKVRSTLSMQKTDPNVADAVAELREASNSWVAKYRKEKALLGKASFRDIYSALNAVSGHYVSFGPTAPIPAKRKARILEEMETAEKALTRGR
# B2: PsbR (protein, UniProt P27202 42-140)
# chain: SGVKKIKTDKPFGINGSMDLRDGVDASGRKGKGYGVYKYVDKYGANVDGYSPIYNENEWSASGDVYKGGVTGLAIWAVTLAGILAGGALLVYNTSALAQ
# B3: Psb29 (protein, UniProt Q9SKT0 68-300)
# chain: SETKSKFLKAYKRPIPSIYNTVLQELIVQQHLMRYKKTYRYDPVFALGFVTVYDQLMEGYPSDQDRDAIFKAYIEALNEDPKQYRIDAQKMEEWARSQTSASLVDFSSKEGDIEAVLKDIAGRAGSKEGFSYSRFFAVGLFRLLELASATDPTVLDKLCASLNINKKSVDRDLDVYRNLLSKLVQAKELLKEYVEREKKKQGERAQSQKANETISKCLGDTLYNPSFLVERKS
# B4: HSP70–6 (protein, UniProt Q9STW6 93-718)
# chain: AAMEGGKPTIVTNAEGQRTTPSVVAYTKSGDRLVGQIAKRQAVVNPENTFFSVKRFIGRKMNEVDEESKQVSYRVVRDENNNVKLECPAINKQFAAEEISAQVLRKLVDDASRFLNDKVTKAVITVPAYFNDSQRTATKDAGRIAGLEVLRIINEPTAASLAYGFDRKANETILVFDLGGGTFDVSVLEVGDGVFEVLSTSGDTHLGGDDFDKRVVDWLAAEFKKDEGIDLLKDKQALQRLTEAAEKAKIELSSLTQTNMSLPFITATADGPKHIETTLTRAKFEELCSDLLDRVRTPVENSLRDAKLSFKDIDEVILVGGSTRIPAVQELVRKVTGKEPNVTVNPDEVVALGAAVQAGVLAGDVSDIVLLDVTPLSIGLETLGGVMTKIIPRNTTLPTSKSEVFSTAADGQTSVEINVLQGEREFVRDNKSLGSFRLDGIPPAPRGVPQIEVKFDIDANGILSVSAVDKGTGKKQDITITGASTLPKDEVDQMVQEAERFAKDDKEKRDAIDTKNQADSVVYQTEKQLKELGEKIPGEVKEKVEAKLQELKDKIGSGSTQEIKDAMAALNQEVMQIGQSLYNQPGAGGPGAGPSPGGEGASSGDSSSSKGGDGDDVIDADFTDSQ
# B5: PsbP1 (protein, UniProt Q42029 78-263)
# chain: AYGEAANVFGKPKTNTDFLPYNGDGFKVQVPAKWNPSKEIEYPGQVLRFEDNFDATSNLNVMVTPTDKKSITDYGSPEEFLSQVNYLLGKQAYFGETASEGGFDNNAVATANILESSSQEVGGKPYYYLSVLTRTADGDEGGKHQLITATVNGGKLYICKAQAGDKRWFKGARKFVESAATSFSVA
# Tests used:
# Assay in all cases: cross-linking; 1 mM DSBU (MS-cleavable) directly after cell disruption and again after chloroplast isolation; 1% SDS; lpBN-PAGE fractions digested with trypsin; interlinks identified by MS (MaxLynx); plants acclimated to LL, GL, EL or HL (20, 120, 600, 1000 µmol m^-2 s^-1)
# [1] = molecular target: NdhA (Arabidopsis thaliana (endogenous in leaf chloroplast isolate)) (UniProt Q37165)
# [2] = molecular target: PsbO2 (Arabidopsis thaliana (endogenous in leaf chloroplast isolate)) (UniProt Q9S841)
# [3] = molecular target: T1, TL20.3 (Arabidopsis thaliana (endogenous in leaf chloroplast isolate))
# [4] = molecular target: T2, FIB1A (Arabidopsis thaliana (endogenous in leaf chloroplast isolate))
# [5] = molecular target: T3, FtsH5 (Arabidopsis thaliana (endogenous in leaf chloroplast isolate))
# [6] = molecular target: PetD (Arabidopsis thaliana (endogenous in leaf chloroplast isolate)) (UniProt P56774)
# [7] = molecular target: RPL10AB (Arabidopsis thaliana (endogenous in leaf chloroplast isolate)) (UniProt P59230)
molecule,measurement,setting,value
PsbO2 (from UniProt Q9S841 85-331),binding,[1],binds
RPL15 (from UniProt P25873 68-277),binding,[2],binds
B1,binding,[3],binds
B2,binding,[4],binds
B3,binding,[5],binds
B4,binding,[6],binds
B5,binding,[7],binds
